Screening data, single-dose tests

A: 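Growth of Mycobacterium tuberculosis over 4 days (cholesterol / DPPC medium with tyloxapol); the read-out is not stated. Compounds at 50 µM. The record gives no direction; compounds that gave an IC50 in retests scored well above the rest, so higher reads as more growth inhibition. Of about 69,000 compounds tested this way, about 370 (0.54%) reached 50% or more in at least one test.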
B: 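Whole-cell growth test on Mycobacterium tuberculosis, read after 3 days in glucose-containing 7H9 medium; the read-out is not stated. Tested at 50 µM. Higher reads as more growth inhibition (inferred: compounds with an IC50 in retests scored well above the rest). Of about 69,000 compounds tested this way, about 760 (1.1%) reached 50% or more in at least one test.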

Results are given as percent effect.
How 0% and 100% were set is not recorded. Most values in the screen are low, and negative values occur.
Compounds were drawn at random from those tested, without regard to their results.
Two or more numbers in one place are separate tests of the same structure; such repeats can differ widely.

{"compound": "CC(C)c1ccc(CC2(C)Cc3cc(CC(=O)O)ccc3O2)cc1", "stereo": "stereo not drawn", "A": "17.01 & -3.779", "B": 25.93}
{"compound": "Cc1ccc(OCC(=O)Nc2ncccc2OC(F)F)cc1", "A": 4.879, "B": "3.636 & 18.99"}
{"compound": "CC(C)Oc1cccc(C(=O)Nc2nncs2)c1", "A": 2.612, "B": 10.87}
{"compound": "CCOc1ncccc1C(=O)NC1CCCN(c2ncccn2)C1", "stereo": "stereo not drawn", "A": -2.278, "B": 4.563}
{"compound": "CN(C)C(=O)N1CCC(C2C(=O)Nc3ccccc32)CC1", "stereo": "stereo not drawn", "A": 6.46, "B": 10.41}
{"compound": "O=C(O)C(F)(F)F.[H][C@@]12CCN(Cc3cccc(C)c3)C[C@]1([H])[C@@H](CNC(=O)N(C)C)OC2", "A": 9.027, "B": "1.387 & 11.73"}
{"compound": "CN(C)C(CNC(=O)NCc1ccco1)c1cccs1", "stereo": "stereo not drawn", "A": -29.07, "B": -0.3787}
{"compound": "COC(=O)c1cccc2nc([C@H]3CCN(Cc4ccccc4C)C3)oc12", "A": 8.518, "B": "13.89 & 17.53"}
{"compound": "CS(=O)(=O)NC1CCN(C(=O)c2cc3ccccc3s2)C1", "stereo": "stereo not drawn", "A": 11.79, "B": "-1.393 & 3.717"}
{"compound": "Cc1cc2nc(C(C)C)cc(NCC(c3ccccn3)N(C)C)n2n1", "stereo": "stereo not drawn", "A": 13.22, "B": 42.95}
{"compound": "Cc1cc(N2CCCC(O)(CN(C)C)CC2)nc(-c2ccccc2)n1", "stereo": "stereo not drawn", "A": -5.25, "B": -1.481}
{"compound": "COCCO[C@H]1CCN(C(=O)c2ccno2)[C@H]1Cc1cnn(C)c1", "A": "-8.349 & 5.704", "B": -20.03}
{"compound": "Cc1ccc(CNC(=O)NC(C)Cn2cccn2)cn1", "stereo": "stereo not drawn", "A": 13.31, "B": 9.5}
{"compound": "COCC(=O)NCC[C@H]1CC(C)(C)Oc2ccc(OC)cc21", "A": -21.88, "B": 0.5781}
{"compound": "CN1CCN(Cc2ccccc2CNC(=O)c2ccc(Br)cc2)CC1", "A": 3.165, "B": 30.8}
{"compound": "CC[C@@]1(O)CCN(C(=O)c2ccc(-c3ccco3)cc2)C[C@H]1O", "A": "5.721 & -6.338", "B": 17.22}
{"compound": "CCS(=O)(=O)NCC1Cn2nnc(-c3cccc(C)c3)c2CO1", "stereo": "stereo not drawn", "A": -10.23, "B": -5.957}
{"compound": "Cn1c(CCCNc2nccnc2C#N)nc2ccccc21", "A": 3.858, "B": -37.25}
{"compound": "Cc1noc(C(C)N2CCN(c3ncnc4ccccc34)CC2)n1", "stereo": "stereo not drawn", "A": 11.03, "B": -0.8688}
{"compound": "O=C(O)C(F)(F)F.[H][C@@]12CCCO[C@]1([H])[C@@H](OCC)CN2CC1CCOCC1", "A": -8.764, "B": 2.81}
{"compound": "Cn1ccnc1CN1CCN(CC(O)c2ccc(F)cc2)CC1", "stereo": "stereo not drawn", "A": 20.83, "B": -3.582}
{"compound": "O=C(O)C(F)(F)F.O=S(=O)(C1CC1)N1CCn2cc(CNc3ccccn3)nc2C1", "A": 17.04, "B": "23.64 & 11.52"}

Some entries from above, unchanged:

Compound	A	B
O=C(O)C(F)(F)F.[H][C@@]12CCN(Cc3cccc(C)c3)C[C@]1([H])[C@@H](CNC(=O)N(C)C)OC2	9.027%	1.387% & 11.73%
Cc1cc(N2CCCC(O)(CN(C)C)CC2)nc(-c2ccccc2)n1 (stereo not drawn)	-5.25%	-1.481%

Source: ChEMBL document CHEMBL3988442, “University of Dundee, Small-Polar-MMV Screening Library” (2021).